{"source": "patent US9297798B2", "about": "“Therapeutic approach for polyglutamine degeneration” (The Chinese University of Hong Kong, priority 2013, dated 2016)", "key": {"[1]": {"system": "interaction between purified NCL and expanded CAG RNA (NCL: CAG78 RNA complex)", "assay": "Competition assay: GST-NCL / CAG78 RNA pull-down on glutathione beads, bound RNA by RT-PCR", "type": "binding", "from_the_text": "Purified GST-nucleolin (GST-NCL) protein was purchased from Abnova (H00004691-P01), and the control GST protein was expressed and purified as previously described (Tsoi H, et al. 2011). The CAG78 (SEQ ID NO:18) and CUG78 (SEQ ID NOP:19) RNAs were synthesized from a pcDNA3.1-MJDCAG78 PCR product, using the MEGAscript kit (Ambion) with the following primer pairs: T7CAGF, 5′-TAA AC GACTCACTATAGGGAGAAGAAGCCTACTTTGAAAAA-3′ (SEQ ID NO:20) and CAGR, 5′-CTG TCC TGA TAG GTC CCG-3′ (SEQ ID NO:21) for CAG78 (SEQ ID NO:18); and T7CUGF, 5′-TAATACGACTCACTATAGGGAGAAGACACGACTATCCAGGGC-3′ (SEQ ID NO:22) and CUGR, 5′-CTT CGG ATG AAA CTT TTT-3′ (SEQ ID NO:23) for CUG78 (SEQ ID NO:19). To perform in vitro protein-RNA interaction, 50 ng of GST protein was first captured by glutathione Sepharose beads (GE Healthcare). The purified in vitro transcribed RNA (10 pmol) was allowed to bind with GST-coated glutathione Sepharose beads and the mixture was incubated at 4° C. overnight in a 500-μL reaction volume. Before elution, the protein-RNA mixture was washed three times with 1 mL of binding buffer [20 mM Hepes, pH 7.4, 150 mM NaCl, 5 mM MgCl2, 0.5% Nonidet P-40, 40 units RNAsin (Promega), and 1 mg/mL yeast tRNA (Sigma)]. Bound RNA was then extracted for RT-PCR as described in Tsoi H, et al. 2011.\nThese peptides were then tested for the ability to interact with expanded CAG RNA. […]"}, "[2]": {"system": "endogenous NCL binding to upstream control element (UCE) of rRNA promoter", "assay": "Endogenous NCL binding to UCE of rRNA promoter in expanded CAG RNA-expressing cells co-transfected with P3 constructs", "type": "cell-based", "conditions": "expression construct co-transfected with expanded CAG-RNA (EGFPCAG) construct (FIG. 2A)"}, "UCE DNA methylation": {"system": "UCE DNA methylation", "assay": "UCE DNA methylation, HpaII methylation assay, in expanded CAG RNA-expressing cells", "type": "cell-based", "conditions": "expression construct co-transfected with expanded CAG-RNA construct; HpaII assay (FIG. 2B)"}, "rRNA transcription": {"system": "rRNA transcription", "assay": "rRNA transcription (RT-PCR) in expanded CAG RNA-expressing cells", "type": "cell-based", "conditions": "expression construct co-transfected with expanded CAG-RNA construct (FIG. 2C)"}, "p53 protein accumulation": {"system": "p53 protein accumulation", "assay": "p53 protein stabilization in expanded CAG RNA-expressing cells", "type": "cell-based", "conditions": "expression construct co-transfected with expanded CAG-RNA construct (FIG. 2D)"}, "[3]": {"system": "rRNA transcription in expanded CAG expressing HEK293 cells", "assay": "Quantitative real time-PCR of rRNA transcription in expanded CAG expressing HEK293 cells", "type": "cell-based", "conditions": "pcDNA3.1 expression constructs, expanded CAG expressing HEK293 cells (FIG. 2E)"}, "[4]": {"system": "gene expression mediated by RNA polymerases II and III (GAPDH, tRNA and U6)", "assay": "Quantitative real time-PCR of RNA polymerase II and III transcripts (specificity)", "type": "cell-based", "conditions": "pcDNA3.1 expression construct, real time-PCR (FIG. 2E)"}, "DsRedCAG100 RNA toxicity": {"system": "DsRedCAG100 RNA toxicity", "assay": "Pseudopupil assay in DsRedCAG100 Drosophila fed with peptide", "type": "in vivo", "conditions": "larvae fed with synthetic peptide at 100 μM until adulthood", "description": "FIG. 3. Illustrates an in vivo reduction in expanded CAG-RNA toxicity by feeding Drosophila fly lines that overexpress DsRedCAG100 RNA with synthetic Nucleolin P3 peptide. DsRedCAG0 (A-C) and DsRedCAG100 (D-F) F1 larvae were fed with 100 μM of NCL P3 peptide until adulthood. Representative images of rhabdomeres (light-sensing organelles in eyes) taken from 1 day-old adult flies are shown. The average number of rhabdomeres per ommatidium (single eye unit of the adult flies) is shown at the bottom left hand corner of each image, and “+/−” represents s.e.m. from 3 independent sets of experiments. “NCL P3WT” represents wildtype NCL P3 peptide while “NCL P3MTc” represents mutant c NCL P3 peptide.\nDsRedCAG RNA was expressed in Drosophila fly eyes. DsRedCAG0 (FIGS. 3A-C) and DsRedCAG100 (FIGS. 3D-F) using a pseudopupil assay (Chan W M, et al. 2011). F1 larvae were fed with 100 μM of NCL P3 peptides until adulthood. The overexpression caused the integrity of the internal eye structure to deteriorate, as indicated by the reduced number of rhabdomeres which are subcellular organelles responsible for phototransduction (FIG. 3D). DsRedCAG100 larvae were fed with synthetic P3MTc (FIG. 3E) or P3 (FIG. 3F) peptide at 100 μM."}, "[5]": {"system": "pre-45s rRNA transcription in MJDCAG78-expressing HEK293 cells", "assay": "Real-time PCR of pre-45s rRNA in MJDCAG78-expressing HEK293 cells", "type": "cell-based", "conditions": "MJDCAG78-expressing HEK293 cells (FIG. 5D)", "from_the_text": "(§1) FIG. 5. Depicts the distinct stress responses induced by toxic expanded CAG-RNA and polyQ protein which can be differentiated by pre-rRNA and GRP78/BiP gene expression respectively in transgenic Drosophila and mammalian cell models. […] “dpe” denotes days post eclosion. The CAG repeat sequence of the DsRedCAG constructs is located in the 3′ UTR, thus expanded CAG RNA is produced but not expanded polyglutamine protein. Only RNA toxicity is observed in the DsRedCAG model. […] The MJDCAG constructs express both expanded CAG RNA and polyglutamine protein. […] The MJDCAA/G construct only generates polyQ protein toxicity because the continuity of the expanded CAG sequence is disrupted which disrupts RNA toxicity. (D) Real-time PCR analysis of the effects of RNA and protein toxicity peptidylic inhibitors on pre-45s rRNA and GRP78/BiP expression in an MJD disease cell model. HEK293 cells expressing a polynucleotide encoding MJDCAG78 reduced pre-45s rRNA transcription and induced GRP78/BiP expression. […] Cells expressing a polynucleotide encoding MJDCAG27 served as a control. “SCR” and “P3MT5” represent scrambled QBP1 and mutant P3 peptides respectively."}, "[6]": {"system": "GRP78/BiP expression in MJDCAG78-expressing HEK293 cells", "assay": "Real-time PCR of GRP78/BiP in MJDCAG78-expressing HEK293 cells", "type": "cell-based", "conditions": "MJDCAG78-expressing HEK293 cells (FIG. 5D)", "from_the_text": "as §1"}, "CAG78 RNA": {"biological_target": "CAG78 RNA", "assay": "Fluorescence anisotropy binding with Cy3-labeled CAG78 RNA", "conditions": "10 μM Cy3-labeled CAG78 RNA, read-out: dissociation constant (Kd) of CAG78/P3"}, "CAG27 RNA": {"system": "CAG27 RNA", "assay": "Fluorescence anisotropy binding with labeled CAG27 RNA"}, "[7]": {"system": "Drosophila polyQ disease model", "assay": "Pseudopupil assay in transgenic Drosophila polyQ model (RNA and protein toxicities)", "type": "in vivo", "conditions": "third instar larvae incubated with peptides (100 μM each); pseudopupil assay on 0-3 day-old adult flies", "description": "FIG. 7. (A) A co-treatment approach to target RNA and protein toxicities of polyQ diseases. (B) The combined effect of P3 and QBP1 peptides on suppressing neurodegeneration in a transgenic Drosophila polyQ model. Third instar larvae were incubated with corresponding peptides (100 μM each). Pseudopupil assay was performed on 0-3 day-old adult flies. The average number of rhabdomeres per ommatidium (single eye unit of the adult flies) is shown at the bottom left hand corner of each image. (C) Statistical analysis of (B). “WT” and “MT5” represent wildtype and mutant P3 peptides respectively. “SCR” denotes a scrambled sequence of QBP1. * represents P<0.05; ** represents P<0.01. Error bars represent standard deviation. Because both expanded CAG RNA and polyQ protein contribute to neurotoxicity, a therapeutic strategy that simultaneously targets these toxic species would be ideal for treatment. A similar combined therapeutic approach was recently reported in cancer treatment (Suzuki, et al., 2013), indicating its therapeutic potential of this strategy. We have performed a pilot study to simultaneously target both the RNA and protein toxicities using a well-studied protein toxicity peptide QBP1 (Nagai, et al., 2000) and P3, and has obtained satisfactory suppression (FIG. 7A)."}}, "note": "“Also recorded” adds a separate entry of the source. Part of at least one peptide drawing is inferred or uncertain, most often the ends. Where no end group is shown, it is not given here."}
{"sequence": "DGKSKGIAYIEFK [Peptide P3, DGKSKGIAYIEFK]", "values": [{"measurement": "disruption of the interaction between purified NCL and expanded CAG RNA, dose dependence", "setting": "[1]; P3 at 10, 50, 100, 250, and 750 μM with NCL and CAG78 RNA (FIG. 1D)", "result": "able to interfere with the interaction between purified NCL and expanded CAG RNA; also recorded: disrupts the interaction between purified NCL and expanded CAG RNA in a dose dependent manner"}, {"measurement": "interference with the interaction between purified NCL and expanded CAG RNA", "setting": "[1]; Ten μM of each peptide with purified GST-NCL and CAG78 RNA (FIG. 1C)", "result": "able to interfere with the interaction between purified NCL and expanded CAG RNA"}, {"measurement": "endogenous NCL/UCE interaction", "setting": "[2]", "result": "capable of resuming endogenous NCL/UCE interaction"}, {"measurement": "UCE hypermethylation", "setting": "UCE DNA methylation", "result": "reducing UCE hypermethylation"}, {"measurement": "rRNA transcription", "setting": "rRNA transcription", "result": "promoting rRNA transcription"}, {"measurement": "p53 protein accumulation", "setting": "p53 protein accumulation", "result": "reducing p53 protein accumulation"}, {"measurement": "rRNA transcription / nucleolar stress suppression by real time-PCR", "setting": "[3]; listed as P3WT", "result": "rescued rRNA transcription"}, {"measurement": "rRNA transcription / nucleolar stress suppression by real time-PCR", "setting": "[3]; listed as wild type P3", "result": "could rescue rRNA transcription; also recorded: could resume rRNA transcription"}, {"measurement": "gene expression mediated by RNA polymerases II and III (GAPDH, tRNA and U6)", "setting": "[4]", "result": "did not alter gene expression mediated by RNA polymerases II and III"}, {"measurement": "suppression of DsRedCAG100 RNA toxicity (pseudopupil assay score)", "setting": "DsRedCAG100 RNA toxicity", "result": "satisfactory suppression of DsRedCAG100 RNA toxicity"}, {"measurement": "pre-45s rRNA transcription", "setting": "[5]", "result": "restored pre-45s rRNA transcription"}, {"measurement": "GRP78/BiP induction", "setting": "[6]", "result": "suppressed GRP78/BiP induction"}, {"measurement": "Kd", "setting": "CAG78 RNA", "result": 8.18, "unit": "µM"}, {"measurement": "binding to labeled CAG27 RNA", "setting": "CAG27 RNA", "result": "No binding"}, {"measurement": "suppression of neurodegeneration in Drosophila polyQ disease model", "setting": "[7]", "result": "substantial suppression"}]}
